Test results as given in patent US20220133913A1 (KOREA BASIC SCIENCE INSTITUTE, published 2022).
Positions count from the first letter of the chain named. No constants are given. Whether binding was seen depends on the method and setting. Some binding calls cover weakened binding; strength is not graded here. For some assays here: Tags and fused reporters may be left off the sequences shown.

Amino acid sequences for entries named in this document (tags omitted). A change or cut given only in a name is not applied to a line headed by its entry.
UniProt P06756: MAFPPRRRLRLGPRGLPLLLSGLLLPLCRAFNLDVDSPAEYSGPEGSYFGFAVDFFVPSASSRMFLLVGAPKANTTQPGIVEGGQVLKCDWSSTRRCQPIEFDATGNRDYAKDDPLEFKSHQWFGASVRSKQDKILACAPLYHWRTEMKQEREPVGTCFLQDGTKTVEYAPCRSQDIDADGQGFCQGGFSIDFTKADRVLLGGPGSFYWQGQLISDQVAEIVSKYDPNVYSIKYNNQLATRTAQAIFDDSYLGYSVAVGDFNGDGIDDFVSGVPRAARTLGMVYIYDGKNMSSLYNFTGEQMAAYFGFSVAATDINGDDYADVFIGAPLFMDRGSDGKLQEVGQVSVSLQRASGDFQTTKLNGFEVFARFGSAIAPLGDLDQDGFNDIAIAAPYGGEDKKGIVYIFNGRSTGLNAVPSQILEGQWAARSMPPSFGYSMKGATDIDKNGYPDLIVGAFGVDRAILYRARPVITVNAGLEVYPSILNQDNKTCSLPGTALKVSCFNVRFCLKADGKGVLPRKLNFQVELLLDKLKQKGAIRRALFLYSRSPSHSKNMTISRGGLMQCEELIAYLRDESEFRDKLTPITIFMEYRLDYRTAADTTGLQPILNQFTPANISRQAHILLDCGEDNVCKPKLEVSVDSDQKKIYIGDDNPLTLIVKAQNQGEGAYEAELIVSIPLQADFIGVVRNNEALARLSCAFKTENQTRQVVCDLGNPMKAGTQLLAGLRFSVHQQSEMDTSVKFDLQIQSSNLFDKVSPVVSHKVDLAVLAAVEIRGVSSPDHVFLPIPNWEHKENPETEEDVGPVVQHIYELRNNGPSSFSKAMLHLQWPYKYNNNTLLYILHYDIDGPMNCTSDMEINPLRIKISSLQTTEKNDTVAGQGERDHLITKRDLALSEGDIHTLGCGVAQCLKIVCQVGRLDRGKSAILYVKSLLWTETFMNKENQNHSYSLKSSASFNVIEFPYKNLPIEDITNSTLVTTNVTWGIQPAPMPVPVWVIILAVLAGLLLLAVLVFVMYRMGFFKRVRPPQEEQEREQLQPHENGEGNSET

B1: single-domain antibody VHH-13 containing His6 tag (VHH)
VHH: HVQLVESGGGSVQPGESLRLSCVASGYTVSSSCMAWFRQAPGKEREVVATIVVTSDTTSTFYADSVKGRFTISPDNAKNTLNLQMNSLEPSDTAMYYCAADRKWNVCSRGYRYTPNWANQFTFWGQGTQVTVSS
notes: also called Nanobody #13
B2: single-domain antibody VHH-22 containing His6 tag (VHH)
VHH: QVQLVESGGGSVQAGGSLRLSCVVSGYTCSVYDMIWYRQPPGKEREFVSLINSNGRTTYADSVKGRFTISQNNAKNTVYLQMNSLKPEDTAMYYCHAACYSPSRLNYWGQGTLVTVSS
notes: also called Nanobody #22
B3: single-domain antibody VHH-25 containing His6 tag (VHH)
VHH: B2 VHH with Q1E, L113Q
notes: also called Nanobody #25; pALT-Avb3 VHH25 product
B4: single-domain antibody VHH-25 containing lysin and His6 tags (VHH)
VHH: B2 VHH with Q1E, L113Q
notes: also called Nanobody #25-Lys; VHH-25-K1; not shown: C-terminal lysine tag and His6 tag with any linker
B5: VHH-12 (VHH)
VHH: B1 VHH with H1E
notes: also called clone 12
B6: VHH-11 (VHH)
VHH: B1 VHH with H1D, Q129L
notes: also called clone 11
B7: VHH-13 (VHH)
VHH: B1 VHH
notes: also called clone 13
B8: VHH-15 (VHH)
VHH: B1 VHH with H1E, S91P
notes: also called clone 15
B9: VHH-17 (VHH)
VHH: B1 VHH with H1D, Q129L
notes: also called clone 17
B10: clone 2 (VHH)
VHH: B1 VHH with H1E, S91P
B11: clone 3 (VHH)
VHH: B1 VHH with H1E, S91P
B12: clone 4 (VHH)
VHH: B1 VHH with H1E, S91P
B13: clone 14 (VHH)
VHH: B1 VHH with H1D, Q129L
B14: clone 21 (VHH)
VHH: B1 VHH
B15: clone 27 (VHH)
VHH: B1 VHH
B16: clone 29 (VHH)
VHH: B1 VHH with H1D, Q129L
B17: VHH-16 (VHH)
VHH: DVQLVESGGGSVQPGGSLRLSCAASGYTVENSCMAWFRQAPGKEREVVATIVTNNATGTFYADSVKGRFTVSQDNAKNTLNLQMNSLEPEDTAMYYCAADTKWIVCSRGYRYTPNWANQFKYWGQGTQVTVSS
notes: also called clone 16
B18: clone 18 (VHH)
VHH: B17 VHH
B19: clone 8 (VHH)
VHH: B17 VHH
B20: VHH-20 (VHH)
VHH: B17 VHH with E30D, G58S, Q73H, S86T, Q119H, K121N, Q128L
notes: also called clone 20
B21: clone 30 (VHH)
VHH: B17 VHH with E30D, G58S, Q73H, S86T, Q119H, K121N, Q128L
B22: clone 40 (VHH)
VHH: B17 VHH with E30D, G58S, Q73H, S86T, Q119H, K121N, Q128L
B23: VHH-23 (VHH)
VHH: HVQLVESGGGSVQTGGSLRLSCAASGYTSSTVYMAWFRQTPGKQREGVAAIYTGGGPTYYADSVKGRFTISQDNAKNTVYLQMNTLKPEDTAMYYCAADRYVYRLVTNWYRPSFYTYWGQGTQVTVSS
notes: also called clone 23
B24: VHH-25 (VHH)
VHH: B2 VHH with Q1E, L113Q
notes: also called clone 25
B25: VHH-22 (VHH)
VHH: B2 VHH
notes: also called clone 22
B26: clone 26 (VHH)
VHH: B2 VHH
B27: clone 19 (VHH)
VHH: B1 VHH with H1E
B28: clone 28 (VHH)
VHH: B1 VHH with H1E
B29: clone 32 (VHH)
VHH: B1 VHH with H1E

Assays:
[1] = biological target: T1, human αvβ3 integrin ITGAVB3 (human, UniProt P06756 31-992; P05106 27-718, limits assumed); test: SPR
T1 construct: Recombinant heterodimer used as immunogen, ELISA coating and SPR ligand; also called A5B3; A5b3

[2] = biological target: T1, human αvβ3 integrin ITGAVB3; test: SPR, αvβ3 integrin immobilised on a CMDH chip, nanobody as analyte
[3] = biological target: T1, human αvβ3 integrin ITGAVB3; test: ELISA
[4] = biological target: T1, human αvβ3 integrin ITGAVB3; test: phage ELISA
[5] = biological target: T1, human αvβ3 integrin ITGAVB3; test: ELISA of soluble VHH

Binder	binding [1]	binding [2]	binding [3]	binding [4]	binding [5]
B1	binds	binds			
B2	binds	binds			
B3	binds	binds			
B4		binds			
B5			binds	binds	binds
B6			binds	binds	
B7			binds	binds	binds
B8			binds	binds	
B9			binds	binds	
B10				binds	
B11				binds	
B12				binds	
B13			binds	binds	
B14			binds	binds	
B15			binds	binds	
B16			binds	binds	
B17			binds	binds	binds
B18			binds	binds	
B19				binds	
B20			binds	binds	
B21			binds	binds	
B22				binds	
B23			binds	binds	
B24			binds	binds	binds
B25			binds	binds	binds
B26			binds	binds	
B27			binds	binds	
B28			binds	binds	
B29				binds	
